{"source": "patent US20250228861A1", "about": "“Cancer Treatments Using MTA-Cooperative PRMT5 Inhibitors” (AMGEN INC., priority 2022, published 2025)", "key": {"A549 cells": {"system": "A549 cells", "experiment": "Combination with pemetrexed, CellTiter-Glo viability, Fa and CalcuSyn CI;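 further: fa derived from raw CellTiter-Glo luminescence, CI computed by CalcuSyn from drug concentrations and Fa, with values below 0.9 meaning synergism and 0.9–1.1 nearly additive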", "settings": "Compound B 0.1535 μM fixed + Pemetrexed 0.087792 μM, 6 days"}, "PSN1 cells": {"system": "PSN1 cells", "settings": "6 days"}, "NSCLC (H292) cell line": {"system": "NSCLC (H292) cell line", "settings": "H292 cells; nuclear counts over 10 days"}, "MIAPACA2T2 cells": {"system": "MIAPACA2T2 cells", "settings": "6 days"}, "[1]": {"settings": "Compound B 0.0202 μM fixed + 5-FU 0.357628 μM"}, "[2]": {"settings": "Compound B 0.0202 μM fixed + 5-FU 0.572205 μM"}, "[3]": {"settings": "Compound B 0.0202 μM fixed + 5-FU 0.915527 μM"}, "[4]": {"settings": "Compound B 0.0202 μM fixed + 5-FU 1.46484 μM"}, "[5]": {"settings": "Compound B 0.0202 μM fixed + 5-FU 2.34375 μM"}, "[6]": {"settings": "Compound B 0.0202 μM fixed + 5-FU 3.75 μM"}, "[7]": {"settings": "Compound B 0.0202 μM fixed + 5-FU 6 μM"}, "[8]": {"settings": "Compound B 0.4374 μM fixed + 5-FU 0.664052 μM"}, "[9]": {"settings": "Compound B 0.4374 μM fixed + 5-FU 0.929672 μM"}, "[10]": {"settings": "Compound B 0.4374 μM fixed + 5-FU 1.30154 μM"}, "[11]": {"settings": "Compound B 0.4374 μM fixed + 5-FU 1.82216 μM"}, "[12]": {"settings": "Compound B 0.4374 μM fixed + 5-FU 3.57143 μM"}, "[13]": {"settings": "Compound B 0.4374 μM fixed + 5-FU 5 μM"}}, "note": "Read-outs that look alike come from different tables or passages of the source.", "data": [{"smiles": "Cc1cc2cc(C(=O)N(Cc3ccc(C(F)(F)F)cn3)[C@@H](C)c3ncccn3)ccc2nc1N", "note": "[Compound B]", "values": [{"measurement": "Computed CI value", "setting": "A549 cells", "result": 1.06}, {"measurement": "Combination Fa", "setting": "PSN1 cells; [1]", "result": 0.5061}, {"measurement": "Computed CI value", "setting": "PSN1 cells; [1]", "result": 0.932}, {"measurement": "Combination Fa", "setting": "PSN1 cells; [2]", "result": 0.453}, {"measurement": "Computed CI value", "setting": "PSN1 cells; [2]", "result": 1.299}, {"measurement": "Combination Fa", "setting": "PSN1 cells; [3]", "result": 0.5174}, {"measurement": "Computed CI value", "setting": "PSN1 cells; [3]", "result": 1.305}, {"measurement": "Combination Fa", "setting": "PSN1 cells; [4]", "result": 0.6551}, {"measurement": "Computed CI value", "setting": "PSN1 cells; [4]", "result": 1.047}, {"measurement": "Combination Fa", "setting": "PSN1 cells; [5]", "result": 0.7273}, {"measurement": "Computed CI value", "setting": "PSN1 cells; [5]", "result": 1.056}, {"measurement": "Combination Fa", "setting": "PSN1 cells; [6]", "result": 0.8588}, {"measurement": "Computed CI value", "setting": "PSN1 cells; [6]", "result": 0.717}, {"measurement": "Combination Fa", "setting": "PSN1 cells; [7]", "result": 0.9075}, {"measurement": "Computed CI value", "setting": "PSN1 cells; [7]", "result": 0.674}, {"measurement": "anti-tumor cell growth activity of combination with carboplatin", "setting": "NSCLC (H292) cell line", "result": "significant anti-tumor cell growth activity versus either paclitaxel or carboplatin alone"}, {"measurement": "anti-tumor cell growth activity of combination with paclitaxel", "setting": "NSCLC (H292) cell line", "result": "significant anti-tumor cell growth activity versus either paclitaxel or carboplatin alone"}, {"measurement": "Combination Fa", "setting": "MIAPACA2T2 cells; [8]", "result": 0.746}, {"measurement": "Computed CI value", "setting": "MIAPACA2T2 cells; [8]", "result": 0.386}, {"measurement": "Combination Fa", "setting": "MIAPACA2T2 cells; [9]", "result": 0.799}, {"measurement": "Computed CI value", "setting": "MIAPACA2T2 cells; [9]", "result": 0.347}, {"measurement": "Combination Fa", "setting": "MIAPACA2T2 cells; [10]", "result": 0.818}, {"measurement": "Computed CI value", "setting": "MIAPACA2T2 cells; [10]", "result": 0.404}, {"measurement": "Combination Fa", "setting": "MIAPACA2T2 cells; [11]", "result": 0.856}, {"measurement": "Computed CI value", "setting": "MIAPACA2T2 cells; [11]", "result": 0.428}, {"measurement": "Computed CI value", "setting": "MIAPACA2T2 cells; Compound B 0.4374 μM fixed + 5-FU 2.55102 μM", "result": 0.48}, {"measurement": "Combination Fa", "setting": "MIAPACA2T2 cells; [12]", "result": 0.911}, {"measurement": "Computed CI value", "setting": "MIAPACA2T2 cells; [12]", "result": 0.54}, {"measurement": "Combination Fa", "setting": "MIAPACA2T2 cells; [13]", "result": 0.918}, {"measurement": "Computed CI value", "setting": "MIAPACA2T2 cells; [13]", "result": 0.704}]}]}
